The subject of the assay is HEK293A TEAD-LUC reporter. Description: TEAD-luciferase reporter activity (YAP activation), robust Z score vs plate; higher = stronger YAP/TEAD activation. Particulars: 24 h. In general terms: Reporter assays use an easily measured gene product as a stand-in for the process of interest.

Counter-ions that a name gives are not always drawn. Some of the results follow. This data set is noisy: repeats of one test often differ as much as different tests do.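 Human kidney-derived cells stably carry a construct in which eight TEAD-binding elements drive luciferase, measured by luminescence in a drug-repurposing library screen. A hit is any compound whose signal exceeds the plate mean by more than five robust Z scores.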

As to `Cn1cncc1[C@@](N)(c1ccc(C#N)cc1)c1cc2cc(C#N)cc(-c3cccc(F)c3)c2o1`, the TEAD-luciferase reporter activity runs as follows: (compound concentration: 200 nM) inactive: -0.874; (compound concentration: 2 uM) inactive: 2.98; (compound concentration: 10 uM) inactive: -1.15.
`CC1(CN2CCC(n3c(=O)[nH]c4ccccc43)CC2)OCc2ccccc2-n2cccc21` (stereo not drawn) [Zaldaride maleate]: the TEAD-luciferase reporter activity (compound concentration: 2 uM) was inactive: -1.33.
For `CC(C)N(C[C@H]1O[C@@H](n2cnc3c(N)ncnc32)[C@H](O)[C@@H]1O)[C@H]1C[C@@H](CCc2nc3cc(C(C)(C)C)ccc3[nH]2)C1` [Pinometostat], the TEAD-luciferase reporter activity is inactive: 1.76 (compound concentration: 200 nM), inactive: -0.776 (compound concentration: 2 uM) and inactive: -0.786 (compound concentration: 10 uM).
Consider `O=C(O)CCc1nc(-c2ccccc2)c(-c2ccccc2)o1`, for which the TEAD-luciferase reporter activity is inactive: 0.319 (compound concentration: 200 nM) and inactive: 1.36 (compound concentration: 10 uM).
In the case of `O=C(O)CCc1nc(-c2ccccc2)c(-c2ccccc2)o1` [oxaprozin], the TEAD-luciferase reporter activity (compound concentration: 2 uM) was inactive: -1.29.
On to `COc1cc2ncnc(N3CCN(C(=O)OCC(C)(C)O)CC3)c2cc1OC`, for which the TEAD-luciferase reporter activity by setting is: (compound concentration: 200 nM) inactive: 0.82; (compound concentration: 2 uM) inactive: -0.291; (compound concentration: 10 uM) inactive: 0.616.
Regarding `CCN(C)c1nc2ccc(C(=O)N(CC(C)C)C[C@@H](O)[C@H](Cc3ccccc3)NC(=O)OCc3cncs3)cc2o1`, the TEAD-luciferase reporter activity is, setting by setting: (compound concentration: 200 nM) inactive: 2.03; (compound concentration: 2 uM) inactive: 0.251; (compound concentration: 10 uM) inactive: -1.04.
For `CCCC(=O)O[C@H]1[C@@H]([N+]2(C)CCCCC2)C[C@H]2[C@@H]3CC[C@H]4C[C@H](OC(C)=O)[C@@H](N5CCCCC5)C[C@]4(C)[C@H]3CC[C@@]21C` the same measures were inactive: -0.923, inactive: -0.0893 and inactive: 0.369.
Turning to `N#Cc1ccc2c(c1)[C@@H]1CN(CCCCNC(=O)c3ccc(-c4ccccc4)cc3)C[C@H]1CO2`, the TEAD-luciferase reporter activity reads like this: (compound concentration: 200 nM) inactive: -0.706; (compound concentration: 2 uM) inactive: -1.68; (compound concentration: 10 uM) inactive: 1.82.
Take `C/C(O)=C(\C#N)C(=O)Nc1ccc(C(F)(F)F)cc1` [2-cyano-3-hydroxy-n-[4-(Trifluoromethyl)phenyl]but-2-enamide]: the TEAD-luciferase reporter activity (compound concentration: 200 nM) is inactive: 4.13 and the TEAD-luciferase reporter activity (compound concentration: 10 uM) was active: 5.41.
With `C/C(O)=C(\C#N)C(=O)Nc1ccc(C(F)(F)F)cc1` [Teriflunomide], the TEAD-luciferase reporter activity (compound concentration: 2 uM) is inactive: 1.48.
For the compound `O=C(O)[C@H](O)Cc1ccc(O)c(O)c1` [alpha-Hydroxyhydrocaffeic acid], the TEAD-luciferase reporter activity is, setting by setting: (compound concentration: 200 nM) inactive: 0.0632; (compound concentration: 2 uM) inactive: -1.5; (compound concentration: 10 uM) inactive: -1.36.
In the same order, the values of `Nc1nc(=O)n([C@H]2C[C@H](O)[C@@H](CO)O2)cc1F` are inactive: -2.36, inactive: -0.912 and inactive: 1.17.
Consider `CC(C)(C)OC(=O)NCCN1CC2CN(CCOc3ccc(C#N)cc3F)CC(C1)O2`, for which the TEAD-luciferase reporter activity reads like this: (compound concentration: 200 nM) inactive: -2.09; (compound concentration: 2 uM) inactive: 0.119; (compound concentration: 10 uM) inactive: 1.11.
For `O=C(Nc1ccc(C(=O)O)c(O)c1)c1ccccc1` the same measures were inactive: 0.0327, inactive: -0.00896 and inactive: -0.253.
In the same order, the values of `CC(C)=CCC/C(C)=C/CNCCNC1C2CC3CC(C2)CC1C3` (stereo not drawn) are inactive: 1.01, inactive: -1.46 and inactive: 1.74.
For `C[C@@H]1CN(c2ccc(OC(F)(F)F)cc2)C[C@H](C)N1S(=O)(=O)c1cccc2c1CC(C(=O)O)C2` (stereo partly drawn) the same measures were inactive: 2.35, inactive: 0.133 and inactive: 0.705.
As for `CCC1CN2C(C)=Nc3c(C)nn(C)c3C2=N1` (stereo not drawn), the TEAD-luciferase reporter activity runs as follows: (compound concentration: 200 nM) inactive: -0.328; (compound concentration: 2 uM) inactive: -1.56; (compound concentration: 10 uM) inactive: -0.853.
For `C[C@](O)(C(=O)Nc1cccc2c1C(=O)c1sccc1CS2(=O)=O)C(F)(F)F`, the TEAD-luciferase reporter activity was inactive: -1.15 (compound concentration: 200 nM), inactive: -0.022 (compound concentration: 2 uM) and inactive: 3.3 (compound concentration: 10 uM).
In the case of `O=C(O)CCCCO/N=C(/c1cccnc1)c1cccc(C(F)(F)F)c1` [Ridogrel], the TEAD-luciferase reporter activity runs as follows: (compound concentration: 200 nM) inactive: 0.375; (compound concentration: 2 uM) inactive: -0.471; (compound concentration: 10 uM) inactive: 1.14.
For `CC(C)(Oc1ccc(C(=O)c2ccc(Cl)cc2)cc1)C(=O)O` [Choline fenofibrate] the same measures were inactive: 1.73, inactive: -1.6 and inactive: 0.091.
For the compound `Nc1ccc(CC(C(=O)O)c2cn(C3CCCCC3)cn2)cn1` (stereo not drawn), the TEAD-luciferase reporter activity (compound concentration: 200 nM) is inactive: 0.0388, the TEAD-luciferase reporter activity (compound concentration: 2 uM) was inactive: -1.08 and the TEAD-luciferase reporter activity (compound concentration: 10 uM) is inactive: 2.73.
In the same order, the values of `CN(C)CCN(C)n1cc(-c2ccccc2)c2ccccc21` are inactive: -1.25, inactive: -0.224 and inactive: -0.288.
For `CN(C)[C@@H]1C(=O)C(C(=O)NCNCCCC[C@H](N)C(=O)O)C(=O)[C@@]2(O)C(=O)C3C(=O)c4c(O)cccc4[C@@](C)(O)[C@H]3C[C@@H]12` (stereo partly drawn) [Ciclolysal] the same measures were inactive: -1.58, inactive: -0.374 and inactive: 0.315.
In the same order, the values of `CCOC(=O)C1=C(c2ccccc2)c2ccc(OCCCc3ccccc3)cc2/C1=[N+](\C)[O-]` are inactive: 0.96, inactive: -0.216 and inactive: 1.42.
As to `CC(C)(C)NCC(O)c1cc(O)cc(O)c1` (stereo not drawn), the TEAD-luciferase reporter activity was inactive: -0.35 (compound concentration: 200 nM) and inactive: 0.0377 (compound concentration: 10 uM).
For the compound `CC(C)(C)NCC(O)c1cc(O)cc(O)c1` (stereo not drawn) [terbutaline gel], under “compound concentration: 2 uM”, the TEAD-luciferase reporter activity is inactive: 0.865.
Regarding `CC(C)Cc1ccc(C(C)C(=O)OCCN2CCN(c3cccc(Cl)c3)CC2)cc1` (stereo not drawn) [Lobuprofen hydrochloride], the TEAD-luciferase reporter activity (compound concentration: 200 nM) is inactive: 0.839, the TEAD-luciferase reporter activity (compound concentration: 2 uM) is inactive: 2.06 and the TEAD-luciferase reporter activity (compound concentration: 10 uM) was inactive: 2.99.

The values above are taken from the supplement of paper PMC10735217.
